No constants are given. Whether binding was seen depends on the method and setting. Binding seen in cells or lysates may run through a third protein. Some binding calls cover weakened binding; strength is not graded here. For part of these data: Tags and fused reporters may be left off the sequences shown.
T1: STRN3 (human (endogenous in 293A, HGC-27)) (UniProt Q13033)
T1 sequence: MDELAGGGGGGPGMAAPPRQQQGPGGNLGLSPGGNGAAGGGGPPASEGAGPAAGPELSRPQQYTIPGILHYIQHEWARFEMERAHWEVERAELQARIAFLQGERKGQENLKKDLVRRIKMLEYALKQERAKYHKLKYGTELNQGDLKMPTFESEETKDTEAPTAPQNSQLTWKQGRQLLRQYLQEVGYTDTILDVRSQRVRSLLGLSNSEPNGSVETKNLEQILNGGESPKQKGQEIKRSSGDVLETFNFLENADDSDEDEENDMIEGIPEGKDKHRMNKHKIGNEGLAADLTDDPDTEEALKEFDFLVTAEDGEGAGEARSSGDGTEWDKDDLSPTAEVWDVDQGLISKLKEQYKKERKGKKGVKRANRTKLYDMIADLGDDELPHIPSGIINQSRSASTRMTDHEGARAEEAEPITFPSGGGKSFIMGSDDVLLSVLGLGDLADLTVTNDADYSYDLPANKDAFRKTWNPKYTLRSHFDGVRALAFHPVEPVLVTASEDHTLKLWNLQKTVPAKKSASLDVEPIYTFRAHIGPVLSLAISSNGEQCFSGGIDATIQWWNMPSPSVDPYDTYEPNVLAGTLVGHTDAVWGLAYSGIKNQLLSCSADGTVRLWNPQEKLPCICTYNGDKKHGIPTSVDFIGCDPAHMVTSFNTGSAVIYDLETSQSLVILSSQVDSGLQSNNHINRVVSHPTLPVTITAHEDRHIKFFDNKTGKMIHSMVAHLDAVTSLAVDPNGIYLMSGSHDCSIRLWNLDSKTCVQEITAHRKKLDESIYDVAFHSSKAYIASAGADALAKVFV

Amino acid sequences for entries named in this document (tags omitted).
UniProt Q8N884: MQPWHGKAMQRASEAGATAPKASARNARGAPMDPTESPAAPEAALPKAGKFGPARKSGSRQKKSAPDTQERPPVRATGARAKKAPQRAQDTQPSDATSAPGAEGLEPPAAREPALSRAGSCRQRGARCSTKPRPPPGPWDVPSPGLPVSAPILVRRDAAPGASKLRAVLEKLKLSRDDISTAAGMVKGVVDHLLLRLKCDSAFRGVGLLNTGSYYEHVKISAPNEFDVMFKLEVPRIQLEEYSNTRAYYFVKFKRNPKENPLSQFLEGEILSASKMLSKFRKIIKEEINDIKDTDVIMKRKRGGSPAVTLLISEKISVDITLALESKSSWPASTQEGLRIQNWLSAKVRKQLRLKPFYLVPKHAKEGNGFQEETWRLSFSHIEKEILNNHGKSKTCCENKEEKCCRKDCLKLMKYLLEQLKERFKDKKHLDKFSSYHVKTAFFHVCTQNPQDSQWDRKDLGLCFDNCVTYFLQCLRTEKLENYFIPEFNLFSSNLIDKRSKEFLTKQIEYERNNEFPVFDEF
UniProt Q5VSL9: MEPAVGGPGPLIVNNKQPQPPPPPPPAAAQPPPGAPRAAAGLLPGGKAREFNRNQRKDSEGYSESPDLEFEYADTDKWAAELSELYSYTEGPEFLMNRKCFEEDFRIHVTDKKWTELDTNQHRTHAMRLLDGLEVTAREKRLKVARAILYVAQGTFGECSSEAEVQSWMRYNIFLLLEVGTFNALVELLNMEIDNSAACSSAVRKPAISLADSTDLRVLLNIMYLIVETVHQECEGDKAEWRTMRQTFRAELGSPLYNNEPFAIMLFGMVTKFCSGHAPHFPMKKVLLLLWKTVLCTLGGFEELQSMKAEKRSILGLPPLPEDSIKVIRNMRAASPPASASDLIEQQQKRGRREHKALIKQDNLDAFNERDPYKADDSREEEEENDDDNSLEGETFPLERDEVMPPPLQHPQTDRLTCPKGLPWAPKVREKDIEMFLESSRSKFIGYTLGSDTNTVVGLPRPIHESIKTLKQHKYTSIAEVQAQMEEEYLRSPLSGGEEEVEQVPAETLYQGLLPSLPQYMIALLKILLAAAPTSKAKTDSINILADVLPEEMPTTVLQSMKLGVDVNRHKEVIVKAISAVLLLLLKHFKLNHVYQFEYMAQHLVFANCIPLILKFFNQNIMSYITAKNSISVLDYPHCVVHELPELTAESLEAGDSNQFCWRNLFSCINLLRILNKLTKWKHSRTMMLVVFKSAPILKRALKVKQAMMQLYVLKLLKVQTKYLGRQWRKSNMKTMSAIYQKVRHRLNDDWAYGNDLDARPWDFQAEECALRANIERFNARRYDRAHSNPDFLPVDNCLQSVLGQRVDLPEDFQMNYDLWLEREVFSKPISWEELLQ
UniProt Q86WV6: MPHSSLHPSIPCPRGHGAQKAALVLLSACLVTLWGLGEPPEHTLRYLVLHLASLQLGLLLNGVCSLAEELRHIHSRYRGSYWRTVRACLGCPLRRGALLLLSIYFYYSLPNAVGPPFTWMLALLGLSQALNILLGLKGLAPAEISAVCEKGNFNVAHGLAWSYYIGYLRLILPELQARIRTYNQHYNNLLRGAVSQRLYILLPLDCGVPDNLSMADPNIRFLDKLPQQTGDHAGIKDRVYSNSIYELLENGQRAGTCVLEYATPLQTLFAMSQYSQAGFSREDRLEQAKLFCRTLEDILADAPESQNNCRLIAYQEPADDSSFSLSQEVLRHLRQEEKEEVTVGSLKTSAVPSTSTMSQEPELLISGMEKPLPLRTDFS

T2: Flag-tagged SLMAP (UniProt Q14BN4)
T2 sequence: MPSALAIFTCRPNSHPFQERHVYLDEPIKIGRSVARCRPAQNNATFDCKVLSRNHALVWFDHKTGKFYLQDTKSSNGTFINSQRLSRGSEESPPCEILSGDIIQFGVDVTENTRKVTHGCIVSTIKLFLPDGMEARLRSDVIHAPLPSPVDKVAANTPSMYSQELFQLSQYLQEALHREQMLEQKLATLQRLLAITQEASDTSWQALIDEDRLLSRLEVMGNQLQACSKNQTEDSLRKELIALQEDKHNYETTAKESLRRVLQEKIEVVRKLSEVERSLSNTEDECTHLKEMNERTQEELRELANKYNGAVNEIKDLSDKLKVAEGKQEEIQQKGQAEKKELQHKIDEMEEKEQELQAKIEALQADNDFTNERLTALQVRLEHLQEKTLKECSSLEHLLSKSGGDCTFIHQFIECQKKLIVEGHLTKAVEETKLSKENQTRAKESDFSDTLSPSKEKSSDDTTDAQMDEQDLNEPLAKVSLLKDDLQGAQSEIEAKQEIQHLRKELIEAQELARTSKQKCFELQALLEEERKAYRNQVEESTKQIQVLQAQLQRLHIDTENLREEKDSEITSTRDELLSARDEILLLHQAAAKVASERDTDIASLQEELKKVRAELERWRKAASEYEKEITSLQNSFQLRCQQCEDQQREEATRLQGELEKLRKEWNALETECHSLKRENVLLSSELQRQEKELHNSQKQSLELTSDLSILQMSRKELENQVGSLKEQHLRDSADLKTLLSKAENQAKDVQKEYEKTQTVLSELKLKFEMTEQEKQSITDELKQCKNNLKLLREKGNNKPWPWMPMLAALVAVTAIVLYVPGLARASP

T3: Flag-TBK1 (UniProt Q9UHD2)
T3 sequence: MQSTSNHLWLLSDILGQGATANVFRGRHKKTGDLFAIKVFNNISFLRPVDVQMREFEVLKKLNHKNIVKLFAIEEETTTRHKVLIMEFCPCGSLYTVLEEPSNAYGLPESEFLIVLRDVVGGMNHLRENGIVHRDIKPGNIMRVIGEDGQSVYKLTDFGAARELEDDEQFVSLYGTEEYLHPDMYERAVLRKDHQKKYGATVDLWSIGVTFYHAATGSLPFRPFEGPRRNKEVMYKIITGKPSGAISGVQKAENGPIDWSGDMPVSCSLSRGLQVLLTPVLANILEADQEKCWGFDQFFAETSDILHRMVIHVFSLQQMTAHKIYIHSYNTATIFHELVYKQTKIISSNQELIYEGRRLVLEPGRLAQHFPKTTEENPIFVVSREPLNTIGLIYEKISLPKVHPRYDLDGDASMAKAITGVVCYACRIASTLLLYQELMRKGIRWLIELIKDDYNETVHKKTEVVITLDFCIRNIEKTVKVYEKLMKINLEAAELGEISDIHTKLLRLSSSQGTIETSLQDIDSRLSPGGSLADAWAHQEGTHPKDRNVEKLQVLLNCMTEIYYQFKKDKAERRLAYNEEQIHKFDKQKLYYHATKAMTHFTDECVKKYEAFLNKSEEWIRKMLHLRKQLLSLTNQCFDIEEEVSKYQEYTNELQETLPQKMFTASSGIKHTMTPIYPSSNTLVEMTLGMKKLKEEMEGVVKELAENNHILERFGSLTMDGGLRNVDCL

T4: STRN3 (in vitro pulldown assays) (UniProt Q13033)
T4 sequence: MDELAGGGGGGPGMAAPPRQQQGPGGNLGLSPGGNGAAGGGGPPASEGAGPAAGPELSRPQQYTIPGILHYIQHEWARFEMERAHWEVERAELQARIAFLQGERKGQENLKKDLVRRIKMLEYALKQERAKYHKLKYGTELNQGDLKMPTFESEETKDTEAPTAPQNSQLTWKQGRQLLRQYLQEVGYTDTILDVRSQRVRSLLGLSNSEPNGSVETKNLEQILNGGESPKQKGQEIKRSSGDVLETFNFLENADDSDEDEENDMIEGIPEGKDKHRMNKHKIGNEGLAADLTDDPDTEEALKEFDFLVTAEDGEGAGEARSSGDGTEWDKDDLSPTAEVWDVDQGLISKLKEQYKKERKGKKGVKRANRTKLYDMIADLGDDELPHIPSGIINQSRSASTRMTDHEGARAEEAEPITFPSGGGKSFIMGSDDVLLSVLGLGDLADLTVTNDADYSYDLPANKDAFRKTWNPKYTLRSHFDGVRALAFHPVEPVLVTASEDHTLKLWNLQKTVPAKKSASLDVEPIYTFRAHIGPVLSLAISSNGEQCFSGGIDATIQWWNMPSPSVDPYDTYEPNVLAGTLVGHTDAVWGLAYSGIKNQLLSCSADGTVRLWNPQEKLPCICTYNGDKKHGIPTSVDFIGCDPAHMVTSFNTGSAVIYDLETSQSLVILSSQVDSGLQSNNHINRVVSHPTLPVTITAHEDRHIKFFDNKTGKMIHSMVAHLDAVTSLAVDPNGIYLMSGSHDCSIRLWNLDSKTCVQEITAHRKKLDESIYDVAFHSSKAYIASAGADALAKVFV


Tests used:
[1] = biological target: T1, STRN3 (human (endogenous in 293A, HGC-27)); experiment: co-IP; BGC-823 cells with or without SAIP-1 or SAIP-2; interactions of STRN3 (Supplemental Figure 10D)
[2] = biological target: T2, Flag-tagged SLMAP; experiment: co-IP; Flag-SLMAP transfected cells (293FT in the legend, 293A in the text); IR or etoposide, harvested 2 hours after treatment
[3] = biological target: T3, Flag-TBK1; experiment: co-IP; Flag-TBK1 transfected 293FT cells; DNA damage or cGAMP, IP 2 hours after treatment; TBK1 inhibitors MRT or AA-673 greatly attenuated the association
[4] = biological target: T1, STRN3 (human (endogenous in 293A, HGC-27)); experiment: co-IP; STRN3 IP from 293A and HGC-27 cells; 10 μM etoposide for 1 hour, collected at time points after removal of the drug
[5] = biological target: T4, STRN3 (in vitro pulldown assays); experiment: pull-down; in vitro pulldown of STRN3 and SIKE1 with increasing doses of SAIP-2 (Supplemental Figure 10C)

Molecule	binding [1]	binding [2]	binding [4]	other results
cyclic GMP-AMP synthase (cGAS) (from UniProt Q8N884 1-522)	–	no binding	–	–
suppressor of IKBKE 1 (SIKE1) (protein, UniProt Q9BRV8 1-207) MSCTIEKILTDAKTLLERLREHDAAAESLVDQSAALHRRVAAMREAGTALPDQYQEDASDMKDMSKYKPHILLSQENTQIRDLQQENRELWISLEEHQDALELIMSKYRKQMLQLMVAKKAVDAEPVLKAHQSHSAEIESQIDRICEMGEVMRKAVQVDDDQFCKIQEKLAQLELENKELRELLSISSESLQARKENSMDTASQAIK	binds	–	binds	binding [3]: binds
SIKE1 (in vitro pulldown assay) (protein, UniProt Q9BRV8 1-207) MSCTIEKILTDAKTLLERLREHDAAAESLVDQSAALHRRVAAMREAGTALPDQYQEDASDMKDMSKYKPHILLSQENTQIRDLQQENRELWISLEEHQDALELIMSKYRKQMLQLMVAKKAVDAEPVLKAHQSHSAEIESQIDRICEMGEVMRKAVQVDDDQFCKIQEKLAQLELENKELRELLSISSESLQARKENSMDTASQAIK	–	–	–	binding [5]: binds
sarcolemma membrane–associated protein (SLMAP) (protein, UniProt Q14BN4 1-828) MPSALAIFTCRPNSHPFQERHVYLDEPIKIGRSVARCRPAQNNATFDCKVLSRNHALVWFDHKTGKFYLQDTKSSNGTFINSQRLSRGSEESPPCEILSGDIIQFGVDVTENTRKVTHGCIVSTIKLFLPDGMEARLRSDVIHAPLPSPVDKVAANTPSMYSQELFQLSQYLQEALHREQMLEQKLATLQRLLAITQEASDTSWQALIDEDRLLSRLEVMGNQLQACSKNQTEDSLRKELIALQEDKHNYETTAKESLRRVLQEKIEVVRKLSEVERSLSNTEDECTHLKEMNERTQEELRELANKYNGAVNEIKDLSDKLKVAEGKQEEIQQKGQAEKKELQHKIDEMEEKEQELQAKIEALQADNDFTNERLTALQVRLEHLQEKTLKECSSLEHLLSKSGGDCTFIHQFIECQKKLIVEGHLTKAVEETKLSKENQTRAKESDFSDTLSPSKEKSSDDTTDAQMDEQDLNEPLAKVSLLKDDLQGAQSEIEAKQEIQHLRKELIEAQELARTSKQKCFELQALLEEERKAYRNQVEESTKQIQVLQAQLQRLHIDTENLREEKDSEITSTRDELLSARDEILLLHQAAAKVASERDTDIASLQEELKKVRAELERWRKAASEYEKEITSLQNSFQLRCQQCEDQQREEATRLQGELEKLRKEWNALETECHSLKRENVLLSSELQRQEKELHNSQKQSLELTSDLSILQMSRKELENQVGSLKEQHLRDSADLKTLLSKAENQAKDVQKEYEKTQTVLSELKLKFEMTEQEKQSITDELKQCKNNLKLLREKGNNKPWPWMPMLAALVAVTAIVLYVPGLARASP	binds	–	binds	–

Second part, led by results:

binding [1]	binding [2]	binding [4]	Molecule	other results
binds	–	–	striatin-interacting protein 1 (STRIP1) (from UniProt Q5VSL9 1-837)	–
–	no binding	–	stimulator of IFN genes (STING) (from UniProt Q86WV6 1-379)	–

— article PMC9057599
